Results deposited as PubChem BioAssay AID1259425 (University of Nebraska Medical Center, 2018).

Screen: 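Compare each knockdown with KSR1 silencing using changes in marker transcripts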 (primary screen)
Cell system: HCT116 human colon cancer cells
Reagents: siRNA pool against human genes, 50 nM siRNA
Read-out: 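mRNA of six signature genes measured together by branched-DNA assay after 50 nM siRNA pool, blank removed, divided by geometric mean of two housekeeping genes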
Reading the numbers: BNIP3L mRNA: higher = more BNIP3L transcript after knockdown; NDRG1 mRNA: higher = more NDRG1 transcript after knockdown
Here is an unselected part of about 14,000 deposited reagents. Further read-outs or replicates are left out here. Reagent sequences are not shown. The record does not give: the time to read-out.

| gene symbol | BNIP3L mRNA, set 1 | NDRG1 mRNA, set 1 |
| --- | --- | --- |
| FABP4 (fatty acid binding protein 4) | 0.139 | 0.121 |
| ADAMTS3 (ADAM metallopeptidase with thrombospondin type 1 motif 3) | 0.0627 | 0.14 |
| PSAP (prosaposin) | 0.0544 | 0.193 |
| SUGP1 (SURP and G-patch domain containing 1) | 0.0892 | 0.0625 |
| RPL27A (ribosomal protein L27a) | 0.573 | 0.301 |
| PVT1 (Pvt1 oncogene) | 0.221 | 0.064 |
| LYRM2 (LYR motif containing 2) | 0.16 | 0.0915 |
| AGBL4 (AGBL carboxypeptidase 4) | 0.118 | 0.113 |
| SOD2 (superoxide dismutase 2) | 0.0752 | 0.0965 |
| EIF4E (eukaryotic translation initiation factor 4E) | 0.159 | 1.66 |
| H4C9 (H4 clustered histone 9) | 0.286 | 0.306 |
| ATP6V1D (ATPase H+ transporting V1 subunit D) | 0.129 | 0.269 |
| MRPS18A (mitochondrial ribosomal protein S18A) | 0.144 | 0.317 |
| ADRA2A (adrenoceptor alpha 2A) | 0.326 | 0.387 |
| SLC7A7 | 0.0639 | 0.343 |
| TMEM59 (transmembrane protein 59) | 0.0843 | 0.206 |
| GALNS (galactosamine (N-acetyl)-6-sulfatase) | 0.219 | 0.325 |
| PRL (prolactin) | 0.0747 | 0.165 |
| RAB11A (RAB11A, member RAS oncogene family) | 0.0661 | 0.0949 |
| EXOC4 (exocyst complex component 4) | 0.0453 | 0.141 |
